Measurements reported in PubChem BioAssay AID1224830 (NIAID, 2016).
In all, the deposit lists about 18,000 reagents; shown is a part drawn at random. About 2,900 of them (16%) count as active. 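Calls are made per well; low scores hint the gene aids the LPS response, high scores that it dampens it.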 Unmarked entries are inactive. Repeated entries: four replicate wells of each siRNA pool.

Assay: 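Host factors that control LPS-induced TNF expression in human macrophages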 (primary screen)
Cells: human THP-1 monocytic leukaemia cells, TNF dual-luciferase reporter clone, PMA-differentiated to macrophage-like cells
Knock-down reagent: siRNA pool against human genes, 50 nM
Timing: LPS for 4 h, given about 3 days after siRNA transfection
Conditions: bacterial LPS (TLR4 ligand), 10 ng/ml
Detection: 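Ratio of firefly to renilla light, scaled to the plate median and expressed as a robust z-score per replicate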
Direction: TNF reporter robust z-score: higher = stronger TNF reporter response to LPS
Rule for the call: 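Each well counts as active if its z-score is over 2.8 or under -1.5; controls are left without a call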

SLC2A8 showed TNF reporter robust z-score 1.11.
SLC2A8 scored TNF reporter robust z-score 0.65.
SLC2A8 scored TNF reporter robust z-score -0.57.
Silencing of SLC2A8 gave: TNF reporter robust z-score 0.74.
For TCAF2 the deposit lists TNF reporter robust z-score 0.94.
After knock-down of TCAF2, the record shows TNF reporter robust z-score -0.05.
TCAF2 gave TNF reporter robust z-score -0.48.
After knock-down of TCAF2 the results were TNF reporter robust z-score -0.02.
For HPS6, the entry reads TNF reporter robust z-score -0.31.
Against HPS6, the entry reads TNF reporter robust z-score -0.6.
Depletion of HPS6 gave: TNF reporter robust z-score -0.78.
Depletion of HPS6 resulted in: TNF reporter robust z-score 1.22.

Quoted from the listing for reference:
HPS6 — TNF reporter robust z-score: -0.31
HPS6 — TNF reporter robust z-score: -0.6

More records follow:
Depletion of TESK2 resulted in: TNF reporter robust z-score -1.7 (active).
TESK2 scored TNF reporter robust z-score -1.43.
With knock-down of TESK2, the screen gave TNF reporter robust z-score -0.16.
Silencing of TESK2 resulted in: TNF reporter robust z-score 0.04.
TUBGCP4 showed TNF reporter robust z-score -0.74.
After knock-down of TUBGCP4 the results were TNF reporter robust z-score 0.28.
After knock-down of TUBGCP4, the screen gave TNF reporter robust z-score 0.07.
Knock-down of TUBGCP4 came out at: TNF reporter robust z-score 1.1.
